In the supplement of paper PMC7411640:
Structures can show the parent of a compound that is named as a salt. The list shows a part of the results. Repeats in this data set agree poorly, so a single value says little.

Tested on: MDA-MB-468
Assay: phospho-S6 immunofluorescence (DAPI-normalised), per-plate z-score; higher = higher phospho-S6 signal (less pathway suppression)
Conditions: 24 h
Protocol: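 GPCR-targeted compound library (MedChemExpress HY-L006) tested on MDA-MB-468 PTEN-null TNBC cells in 384-well plates at 0.1, 1 or 10 uM, combined with vehicle, GDC0941 450 nM or lapatinib 1 uM, for 24 h. Phospho-S6 (S240/244) immunofluorescence normalised to DAPI and expressed as a per-plate z-score; values are the mean of biological triplicates.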

[1] = compound 0.1 µM, co-treatment: GDC0941 450 nM
[2] = compound 0.1 µM, co-treatment: lapatinib 1 uM
[3] = compound 0.1 µM, co-treatment: vehicle
[4] = compound 1 µM, co-treatment: GDC0941 450 nM
[5] = compound 1 µM, co-treatment: lapatinib 1 uM
[6] = compound 1 µM, co-treatment: vehicle
[7] = compound 10 µM, co-treatment: GDC0941 450 nM
[8] = compound 10 µM, co-treatment: lapatinib 1 uM
[9] = compound 10 µM, co-treatment: vehicle

SMILES | phospho-S6 immunofluorescence (z-score) [1] | phospho-S6 immunofluorescence (z-score) [2] | phospho-S6 immunofluorescence (z-score) [3] | phospho-S6 immunofluorescence (z-score) [4] | phospho-S6 immunofluorescence (z-score) [5] | phospho-S6 immunofluorescence (z-score) [6] | phospho-S6 immunofluorescence (z-score) [7] | phospho-S6 immunofluorescence (z-score) [8] | phospho-S6 immunofluorescence (z-score) [9]
CC(CCc1ccccc1)NCC(O)c1ccc(O)c(C(N)=O)c1 (centres undefined) [Labetalol (hydrochloride)] | 1.8 | 1.36 | 1.58 | 2.27 | 1.39 | 0.7 | 0.84 | -0.16 | 0.83
CC(C)(N)C(=O)N[C@H](COCc1ccccc1)C(=O)N1CCC2(CC1)CN(S(C)(=O)=O)c1ccccc12 [Ibutamoren (Mesylate)] | -0.99 | -0.2 | -0.08 | -0.99 | -1.24 | -0.21 | -2.77 | -7.75 | -5.38
CN1[C@@H]2CC[C@H]1C[C@@H](OC(c1ccccc1)c1ccccc1)C2 [Benztropine (mesylate)] | 0.11 | -0.73 | 0.17 | 0.04 | -0.16 | -0.44 | 1.67 | -1.69 | 0.29
COc1cc(C(=O)N(CCCc2ccccc2)Cc2ccc(CC(=O)O)cc2)cc(OC)c1C | -1.21 | -0.81 | -1.2 | -1 | -0.16 | -1.08 | -0.21 | 0.49 | -0.17
Nc1nc(CC(=O)Nc2ccc(CCNC[C@H](O)c3ccccc3)cc2)cs1 [Mirabegron] | 0.31 | 0.89 | 0.64 | 1.4 | 0.03 | 1.07 | 0.91 | 1.75 | 0.56
O=c1cc(CN2CCOCC2)occ1OCCCCCSc1ccnc2cc(C(F)(F)F)ccc12 | -1.06 | -0.18 | 0.12 | -2.25 | 0.25 | -1.69 | -2.93 | -3.04 | -3.82
Cc1cc(Cn2cnc3c2CC(C(=O)O)N(C(=O)C(c2ccccc2)c2ccccc2)C3)ccc1N(C)C (centres undefined) | -0.16 | 1.07 | 0.29 | -0.83 | -0.31 | 0.37 | -0.71 | 0.17 | 0.29
CN(C)CCCN1c2ccccc2Sc2ccc(C(F)(F)F)cc21 [Triflupromazine (hydrochloride)] | 2.25 | 0.07 | 1.13 | 0.13 | 0.1 | 0.76 | -0.42 | -2.74 | 2.53
OC(CCN1CCCCC1)(c1ccccc1)C1CCCCC1 (centres undefined) [Trihexyphenidyl (hydrochloride)] | 2.07 | 0.66 | 0.44 | -1.23 | -0.67 | 0.27 | -0.3 | -0.52 | 0.56
Cn1c(=O)c2c(ncn2CC(=O)O)n(C)c1=O [Acefylline] | 0.29 | -0.35 | -0.77 | 0.57 | -0.66 | -1.07 | 0.4 | 0.37 | -0.98
CCN1CCCC1CNC(=O)c1cc(S(N)(=O)=O)ccc1OC (centres undefined) [Sulpiride] | 0.42 | 0.12 | -0.09 | -0.07 | -0.7 | -0.85 | -0.13 | 0.19 | 0.05
OCc1cc(C(O)CNCCCCCCOCCCCc2ccccc2)ccc1O (centres undefined) [Salmeterol (xinafoate)] | 1.09 | 1.5 | 1.24 | 1.18 | 1.81 | 0.21 | 1.01 | -2.27 | 2.28
CCCCN1CCC(CNC(=O)c2c3n(c4ccccc24)CCCO3)CC1 [Piboserod] | -1.43 | -0.02 | -0.29 | -0.3 | -0.91 | 0.2 | -0.39 | -0.44 | 0.08
C[C@@](N)(C(=O)O)c1ccc(C(=O)O)cc1 | 0.82 | 0.37 | 0.17 | 0.63 | 0.25 | -0.17 | 0.93 | 1 | 0.17
CCCCCCn1c(O)c(N=NC(=O)c2ccccc2)c2ccccc21 | -0.9 | -1.06 | 0.05 | -1.06 | 0 | 0.21 | -2.97 | -0.75 | 0.59
CCC1(c2c[nH]cn2)Cc2ccccc2C1 [Atipamezole] | 0.8 | 0.35 | 1.03 | 0.89 | 0.18 | 0.6 | 0.08 | -0.83 | 0.81
COc1cc2c(NC3CCN(C(C)C)CC3)nc(N3CCC(F)(F)CC3)nc2cc1OCCCN1CCCC1 | 0.8 | 0.03 | 0.85 | 2.32 | -0.29 | 1.18 | 1.81 | 3.34 | 1.97
O=C1CC2(CCCC2)CC(=O)N1CCCCN1CCN(c2ncccn2)CC1 [Buspirone (hydrochloride)] | 1.07 | 0.88 | 1.73 | 0.53 | 1.81 | 2.14 | 0.3 | 0.17 | 0.69
Cc1ccc(C)c(OCCn2cc(C(=O)O)c3ccccc32)c1 | -0.38 | -0.88 | -0.56 | -0.7 | 0.35 | -1.72 | 0.61 | -0.34 | -0.21
CCn1c2ccccc2c2cc(Nc3ccnc(NCCCN4CCOCC4)n3)ccc21 | -0.69 | 0.3 | 0.55 | -4.47 | -3.91 | -1.26 | -3.59 | -8.74 | -10.3
CC(C)COc1ccc(CNC(=O)N(Cc2ccc(F)cc2)C2CCN(C)CC2)cc1 [Pimavanserin] | 0.37 | -0.62 | -0.03 | 0.84 | -0.49 | -0.04 | -2.66 | -2.95 | -2.1

Some of the entries so far, as a markdown table.

| SMILES | phospho-S6 immunofluorescence (z-score) [1] | phospho-S6 immunofluorescence (z-score) [2] | phospho-S6 immunofluorescence (z-score) [3] | phospho-S6 immunofluorescence (z-score) [4] | phospho-S6 immunofluorescence (z-score) [5] | phospho-S6 immunofluorescence (z-score) [6] | phospho-S6 immunofluorescence (z-score) [7] | phospho-S6 immunofluorescence (z-score) [8] | phospho-S6 immunofluorescence (z-score) [9] |
| --- | --- | --- | --- | --- | --- | --- | --- | --- | --- |
| CC(C)(N)C(=O)N[C@H](COCc1ccccc1)C(=O)N1CCC2(CC1)CN(S(C)(=O)=O)c1ccccc12 [Ibutamoren (Mesylate)] | -0.99 | -0.2 | -0.08 | -0.99 | -1.24 | -0.21 | -2.77 | -7.75 | -5.38 |
| CN1[C@@H]2CC[C@H]1C[C@@H](OC(c1ccccc1)c1ccccc1)C2 [Benztropine (mesylate)] | 0.11 | -0.73 | 0.17 | 0.04 | -0.16 | -0.44 | 1.67 | -1.69 | 0.29 |
| Nc1nc(CC(=O)Nc2ccc(CCNC[C@H](O)c3ccccc3)cc2)cs1 [Mirabegron] | 0.31 | 0.89 | 0.64 | 1.4 | 0.03 | 1.07 | 0.91 | 1.75 | 0.56 |
| O=c1cc(CN2CCOCC2)occ1OCCCCCSc1ccnc2cc(C(F)(F)F)ccc12 | -1.06 | -0.18 | 0.12 | -2.25 | 0.25 | -1.69 | -2.93 | -3.04 | -3.82 |
| Cn1c(=O)c2c(ncn2CC(=O)O)n(C)c1=O [Acefylline] | 0.29 | -0.35 | -0.77 | 0.57 | -0.66 | -1.07 | 0.4 | 0.37 | -0.98 |
| CCCCN1CCC(CNC(=O)c2c3n(c4ccccc24)CCCO3)CC1 [Piboserod] | -1.43 | -0.02 | -0.29 | -0.3 | -0.91 | 0.2 | -0.39 | -0.44 | 0.08 |
| C[C@@](N)(C(=O)O)c1ccc(C(=O)O)cc1 | 0.82 | 0.37 | 0.17 | 0.63 | 0.25 | -0.17 | 0.93 | 1 | 0.17 |
| O=C1CC2(CCCC2)CC(=O)N1CCCCN1CCN(c2ncccn2)CC1 [Buspirone (hydrochloride)] | 1.07 | 0.88 | 1.73 | 0.53 | 1.81 | 2.14 | 0.3 | 0.17 | 0.69 |
| Cc1ccc(C)c(OCCn2cc(C(=O)O)c3ccccc32)c1 | -0.38 | -0.88 | -0.56 | -0.7 | 0.35 | -1.72 | 0.61 | -0.34 | -0.21 |
| CCn1c2ccccc2c2cc(Nc3ccnc(NCCCN4CCOCC4)n3)ccc21 | -0.69 | 0.3 | 0.55 | -4.47 | -3.91 | -1.26 | -3.59 | -8.74 | -10.3 |
| CC(C)COc1ccc(CNC(=O)N(Cc2ccc(F)cc2)C2CCN(C)CC2)cc1 [Pimavanserin] | 0.37 | -0.62 | -0.03 | 0.84 | -0.49 | -0.04 | -2.66 | -2.95 | -2.1 |

Further results follow.

SMILES | phospho-S6 immunofluorescence (z-score) [1] | phospho-S6 immunofluorescence (z-score) [2] | phospho-S6 immunofluorescence (z-score) [3] | phospho-S6 immunofluorescence (z-score) [4] | phospho-S6 immunofluorescence (z-score) [5] | phospho-S6 immunofluorescence (z-score) [6] | phospho-S6 immunofluorescence (z-score) [7] | phospho-S6 immunofluorescence (z-score) [8] | phospho-S6 immunofluorescence (z-score) [9]
CC(C)(C(=O)O)c1ccc(C(O)CCCN2CCC(C(O)(c3ccccc3)c3ccccc3)CC2)cc1 (centres undefined) [Fexofenadine (hydrochloride)] | 0.36 | -1.12 | -0.52 | -0.17 | -0.42 | -0.93 | -0.31 | -0.84 | -0.42
O=C(O)COc1cccc(CN(Cc2ccc(-n3cccn3)cc2)S(=O)(=O)c2cccnc2)c1 [Taprenepag] | 0.79 | 0.53 | 0.23 | -0.31 | 0.33 | -0.28 | -0.91 | 0.34 | -0.73
CC(C)N(CCCCOCC(=O)O)c1cnc(-c2ccccc2)c(-c2ccccc2)n1 | -0.25 | 0.88 | -0.13 | 0.08 | 0.81 | 0.29 | 1.34 | 1.89 | 0.56
Cc1nc2ccc(NC(=O)Nc3ccnc4cccnc34)cc2o1 | 0.46 | -0.17 | 0.65 | 0.19 | -0.21 | 0.1 | 0.6 | -1.8 | 0.79
CC(C)NC[C@H](O)COc1ccc(CCOCC2CC2)cc1 [Levobetaxolol (hydrochloride)] | -0.37 | -0.65 | -0.2 | -0.85 | -1.09 | 0.15 | -0.39 | -0.2 | -0.19
O=C(O)CC1CCC2(CC1)CCN(c1cc(OC(F)(F)F)ccc1Cl)CC2 | -0.2 | -0.27 | -0.55 | 0.19 | 1.05 | -1.05 | 0.09 | 0.11 | 0.22
CN1CCC(=C2c3ccccc3CCn3c(C=O)cnc32)CC1 [Alcaftadine] | -0.17 | 0.86 | -1.14 | -0.86 | 0.15 | -1.42 | -0.88 | 1.09 | -0.66
Cc1cc2c(s1)Nc1ccccc1N=C2N1CCN(C)CC1 [Olanzapine] | 0.82 | 1.46 | 1.6 | 0.75 | 0.69 | 0.39 | 0.77 | 0.3 | 0.35
CCc1cc2c(cc1CC)CC(NC[C@H](O)c1ccc(O)c3[nH]c(=O)ccc13)C2 [Indacaterol (maleate)] | 1.6 | 1.9 | 1.07 | 0.62 | 1.63 | 1.64 | -0.81 | -1.41 | 0.92
Cc1ccc(N(CC2=NCCN2)c2cccc(O)c2)cc1 [Phentolamine (mesylate)] | -0.5 | -0.62 | -1.04 | -1.23 | 0.88 | -1.11 | -0.17 | 1.1 | -0.58
N=C(N)NC(=O)Cc1c(Cl)cccc1Cl [Guanfacine (hydrochloride)] | 0.11 | -0.04 | 0.68 | 0.57 | 0.13 | -0.03 | 0.64 | 0.23 | 0.38
CC(C)(C)NCC(O)c1ccc(O)c(CO)c1 (centres undefined) [Salbutamol (hemisulfate)] | 1.12 | 1.28 | 1.2 | 0.2 | 0.54 | 0.93 | 0.44 | 1.46 | 0.8
Cc1noc(-c2ccc(-c3ccc(CC(=O)O)cc3)cc2)c1NC(=O)OC(C)c1ccccc1Cl (centres undefined) | 0.17 | 0.7 | -0.55 | 0.13 | 0.93 | 0.31 | 0.23 | 0.28 | 0.02
COc1cc2nc(C3CC3)nc(N3CCN(c4ccccc4OC)CC3)c2cc1OC | 0.41 | 0.54 | 1.3 | 0.09 | -0.51 | 0.98 | -1.77 | -0.08 | 0.05
CCc1nn(CCCN2CCN(c3cccc(Cl)c3)CC2)c(=O)n1CCOc1ccccc1 [Nefazodone (hydrochloride)] | -0.4 | -0.08 | 0.21 | 0.31 | 0.24 | 0.41 | -4.37 | -2.37 | -1.26
NC(=O)CC[C@H](N)C(=O)O [L-Glutamine] | 0.29 | -0.05 | -0.78 | 1.31 | -0.31 | 0.47 | -0.23 | -0.64 | -0.12
CN1CCN2c3ccccc3Cc3ccccc3C2C1 (centres undefined) [Mianserin (hydrochloride)] | 0.67 | 0.12 | 1 | -0.3 | -0.29 | 0.72 | 1 | -0.76 | 1.67
CC[C@H](C)[C@@H]1NC(=O)[C@H](Cc2ccc(O)cc2)NC(=O)[C@@H](N)CSSC[C@@H](C(=O)N2CCC[C@H]2C(=O)N[C@@H](CC(C)C)C(=O)NCC(N)=O)NC(=O)[C@H](CC(N)=O)NC(=O)[C@H](CCC(N)=O)NC1=O [Oxytocin (acetate)] | -1.02 | -1.04 | -1.6 | -1.21 | 0.01 | 0.33 | -0.77 | -0.07 | -0.87
CCN(CCCc1ccccc1)CCCc1ccccc1 [Alverine (citrate)] | -0.18 | -0.15 | -0.55 | -0.27 | -0.09 | -0.62 | -0.52 | -1.04 | 0.02
O=C(O[C@H]1CN2CCC1CC2)N1CCc2ccccc2[C@@H]1c1ccccc1 [Solifenacin (Succinate)] | -1.04 | 0.9 | -1.67 | -0.82 | 0.18 | -0.07 | 1.65 | 1.13 | -0.65
